Sequences of proteins named here, by UniProt entry; tags and fusion partners are left off.
UniProt Q76MZ3: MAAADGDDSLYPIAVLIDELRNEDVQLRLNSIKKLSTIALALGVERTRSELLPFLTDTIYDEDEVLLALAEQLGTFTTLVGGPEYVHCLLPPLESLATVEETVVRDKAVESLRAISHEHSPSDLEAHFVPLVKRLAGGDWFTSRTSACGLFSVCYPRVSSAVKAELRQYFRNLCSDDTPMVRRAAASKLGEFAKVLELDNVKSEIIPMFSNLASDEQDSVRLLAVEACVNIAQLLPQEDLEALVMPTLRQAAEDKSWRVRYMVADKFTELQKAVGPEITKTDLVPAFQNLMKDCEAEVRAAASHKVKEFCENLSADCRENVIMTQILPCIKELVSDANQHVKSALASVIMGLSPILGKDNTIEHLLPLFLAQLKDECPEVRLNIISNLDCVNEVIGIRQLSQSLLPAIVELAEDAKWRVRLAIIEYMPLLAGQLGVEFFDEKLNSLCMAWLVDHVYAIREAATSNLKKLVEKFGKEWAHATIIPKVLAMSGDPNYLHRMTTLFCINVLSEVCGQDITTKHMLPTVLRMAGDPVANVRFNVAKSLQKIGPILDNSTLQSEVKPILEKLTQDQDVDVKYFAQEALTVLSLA
UniProt P70288: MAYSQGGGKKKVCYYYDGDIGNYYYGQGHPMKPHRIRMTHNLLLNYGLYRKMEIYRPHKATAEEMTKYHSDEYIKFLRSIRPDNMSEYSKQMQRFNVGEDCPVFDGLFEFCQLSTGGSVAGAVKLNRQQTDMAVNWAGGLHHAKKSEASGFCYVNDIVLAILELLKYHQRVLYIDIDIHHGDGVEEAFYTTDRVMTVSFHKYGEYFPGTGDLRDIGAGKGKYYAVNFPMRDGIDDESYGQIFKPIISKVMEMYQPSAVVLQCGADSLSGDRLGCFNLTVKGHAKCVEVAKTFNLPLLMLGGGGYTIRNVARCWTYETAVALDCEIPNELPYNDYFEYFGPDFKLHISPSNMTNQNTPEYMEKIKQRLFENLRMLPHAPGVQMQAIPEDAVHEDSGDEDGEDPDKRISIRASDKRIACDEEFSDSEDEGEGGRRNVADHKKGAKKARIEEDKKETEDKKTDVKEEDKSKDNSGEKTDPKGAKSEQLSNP
UniProt P62715: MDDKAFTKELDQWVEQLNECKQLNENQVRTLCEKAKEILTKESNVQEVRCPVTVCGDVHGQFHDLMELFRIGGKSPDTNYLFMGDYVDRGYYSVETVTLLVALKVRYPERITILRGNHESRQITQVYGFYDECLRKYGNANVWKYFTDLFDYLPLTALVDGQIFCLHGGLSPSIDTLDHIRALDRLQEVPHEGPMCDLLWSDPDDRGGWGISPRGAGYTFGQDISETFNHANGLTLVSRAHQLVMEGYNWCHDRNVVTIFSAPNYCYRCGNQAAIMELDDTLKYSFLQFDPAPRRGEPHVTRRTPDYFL

According to paper PMC8674339:

Target: Ppp2r1a (PP2A scaffold protein, structural subunit A) (mouse (endogenous in intestinal organoids and CT26)) (UniProt Q76MZ3)
Test: affinity purification with mass spectrometry; wild-type mouse intestinal organoid lysate precipitated with a PPP2R1A-specific antibody (GTX102206) or isotype IgG control on Capturem Protein A columns; eluates trypsin digested, Q Exactive, MASCOT

Row | Substance | binding
1 | histone deacetylase (HDAC)2 (from UniProt P70288 1-488) | binds
2 | protein phosphatase 2 catalytic subunit beta (PPP2CB) (from UniProt P62715 1-309) | binds

These are yes or no findings as the source states them, for the method shown. In cells and extracts the contact can be indirect. Here binding means that the protein was enriched with, or labelled near, the bait; the list need not be complete.
